Source: paper PMC7290032

Amino acid sequences for entries named in this document (tags omitted).
UniProt P27694: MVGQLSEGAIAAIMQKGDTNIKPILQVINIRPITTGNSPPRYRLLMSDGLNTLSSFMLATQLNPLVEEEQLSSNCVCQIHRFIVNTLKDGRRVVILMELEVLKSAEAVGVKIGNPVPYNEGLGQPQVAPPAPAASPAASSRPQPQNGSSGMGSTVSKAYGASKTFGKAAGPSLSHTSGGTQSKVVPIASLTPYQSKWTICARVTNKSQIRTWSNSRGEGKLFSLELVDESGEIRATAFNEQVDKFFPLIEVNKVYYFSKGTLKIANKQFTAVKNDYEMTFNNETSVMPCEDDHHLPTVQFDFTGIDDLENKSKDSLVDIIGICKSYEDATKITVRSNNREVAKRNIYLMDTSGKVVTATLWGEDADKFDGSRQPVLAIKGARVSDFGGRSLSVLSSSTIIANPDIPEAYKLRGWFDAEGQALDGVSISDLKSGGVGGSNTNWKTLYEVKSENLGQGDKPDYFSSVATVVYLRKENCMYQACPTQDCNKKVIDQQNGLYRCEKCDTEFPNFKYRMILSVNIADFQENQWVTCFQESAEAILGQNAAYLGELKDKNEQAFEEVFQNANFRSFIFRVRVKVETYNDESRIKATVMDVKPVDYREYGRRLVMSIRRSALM

T1: MCM8IP-HA (human) (UniProt Q8N3J3)
T1 sequence: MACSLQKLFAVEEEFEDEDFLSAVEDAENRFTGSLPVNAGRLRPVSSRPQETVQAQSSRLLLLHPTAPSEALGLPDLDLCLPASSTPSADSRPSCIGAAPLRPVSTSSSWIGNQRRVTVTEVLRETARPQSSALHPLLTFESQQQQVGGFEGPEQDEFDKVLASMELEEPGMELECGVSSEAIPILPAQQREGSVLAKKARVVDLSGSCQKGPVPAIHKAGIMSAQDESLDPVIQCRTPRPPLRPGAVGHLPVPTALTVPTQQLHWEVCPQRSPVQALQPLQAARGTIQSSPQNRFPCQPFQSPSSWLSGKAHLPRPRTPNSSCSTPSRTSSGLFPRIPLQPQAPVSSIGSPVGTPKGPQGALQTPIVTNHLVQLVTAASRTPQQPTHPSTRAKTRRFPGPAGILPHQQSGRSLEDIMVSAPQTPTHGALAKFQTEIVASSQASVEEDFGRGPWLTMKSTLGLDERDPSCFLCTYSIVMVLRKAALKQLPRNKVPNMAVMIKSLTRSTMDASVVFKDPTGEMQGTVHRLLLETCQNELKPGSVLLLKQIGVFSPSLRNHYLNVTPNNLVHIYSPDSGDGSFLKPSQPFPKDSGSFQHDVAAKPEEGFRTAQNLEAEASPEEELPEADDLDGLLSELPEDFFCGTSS

T2: MCM8IP-BirA* (human) (UniProt Q8N3J3)
T2 sequence: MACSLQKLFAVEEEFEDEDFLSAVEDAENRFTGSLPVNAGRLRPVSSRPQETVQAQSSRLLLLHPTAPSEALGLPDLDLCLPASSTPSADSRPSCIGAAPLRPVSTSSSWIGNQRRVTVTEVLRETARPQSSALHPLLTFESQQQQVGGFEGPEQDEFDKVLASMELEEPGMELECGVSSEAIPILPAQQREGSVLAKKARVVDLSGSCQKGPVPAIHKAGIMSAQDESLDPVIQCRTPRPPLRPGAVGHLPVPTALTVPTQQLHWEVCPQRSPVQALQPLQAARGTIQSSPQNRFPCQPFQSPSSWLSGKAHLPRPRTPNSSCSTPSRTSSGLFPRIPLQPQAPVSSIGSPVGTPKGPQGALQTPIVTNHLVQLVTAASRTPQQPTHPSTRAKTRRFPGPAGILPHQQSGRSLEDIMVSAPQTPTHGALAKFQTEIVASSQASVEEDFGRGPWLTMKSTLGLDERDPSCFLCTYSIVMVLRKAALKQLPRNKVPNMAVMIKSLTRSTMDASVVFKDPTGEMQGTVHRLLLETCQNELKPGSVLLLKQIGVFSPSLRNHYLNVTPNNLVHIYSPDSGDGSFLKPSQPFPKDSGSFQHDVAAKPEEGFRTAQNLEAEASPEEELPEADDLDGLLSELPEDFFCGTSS

T3: BirA*-MCM8IP (human) (UniProt Q8N3J3)
T3 sequence: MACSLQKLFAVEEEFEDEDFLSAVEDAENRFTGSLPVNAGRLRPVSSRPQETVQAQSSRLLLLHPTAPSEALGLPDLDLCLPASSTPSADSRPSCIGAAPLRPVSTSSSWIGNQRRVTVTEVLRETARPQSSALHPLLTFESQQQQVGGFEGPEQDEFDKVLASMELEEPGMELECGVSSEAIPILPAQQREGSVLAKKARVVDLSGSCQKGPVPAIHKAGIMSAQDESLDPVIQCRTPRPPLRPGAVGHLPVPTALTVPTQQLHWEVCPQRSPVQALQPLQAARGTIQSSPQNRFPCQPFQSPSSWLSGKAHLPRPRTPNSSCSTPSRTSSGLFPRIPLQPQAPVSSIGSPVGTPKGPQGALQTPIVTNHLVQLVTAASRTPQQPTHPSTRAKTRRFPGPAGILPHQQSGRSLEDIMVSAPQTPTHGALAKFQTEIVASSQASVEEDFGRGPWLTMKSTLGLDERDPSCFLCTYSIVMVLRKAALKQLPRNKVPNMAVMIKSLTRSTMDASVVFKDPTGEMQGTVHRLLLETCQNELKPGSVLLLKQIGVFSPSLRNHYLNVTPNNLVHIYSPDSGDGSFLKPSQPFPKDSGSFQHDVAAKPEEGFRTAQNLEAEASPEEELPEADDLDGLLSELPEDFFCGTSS


How the values were obtained:
[1] = target: T1, MCM8IP-HA (human); assay: affinity purification with mass spectrometry; anti-HA immunoprecipitation from HEK293T stably expressing MCM8IP-FLAG-HA against GFP-FLAG-HA; gel slices, LC-MS/MS; at least 5-fold enriched
[2] = target: T2, MCM8IP-BirA* (human); assay: proximity labelling; BioID with mass spectrometry: BirA*-MCM8IP or MCM8IP-BirA* against BirA* alone in HU-treated HEK293T T-REx; RIPA lysis, streptavidin beads; at least 5-fold enriched
[3] = target: T3, BirA*-MCM8IP (human); assay: as above
[4] = target: BirA*-RPA1 (UniProt P27694); assay: proximity labelling; BioID with mass spectrometry: BirA*-RPA1 against BirA* alone in HU-treated HEK293T T-REx; lysis in 6 M urea, streptavidin beads; two or more peptides, at least 3-fold enriched
[5] = target: BirA*-RPA1 (UniProt P27694); assay: proximity labelling; small-scale BioID: doxycycline-induced BirA* fusion in HEK293T T-REx, 50 µM biotin 18-24 h, untreated or with HU, cisplatin or olaparib; RIPA lysis, streptavidin beads, western blot

Row | Binder | binding [1] | binding [2] | binding [3] | binding [4] | binding [5]
1 | SMARCAL1 (protein, UniProt Q9NZC9 1-954) MSLPLTEEQRKKIEENRQKALARRAEKLLAEQHQRTSSGTSIAGNPFQAKQGPSQNFPRESCKPVSHGVIFKQQNLSSSSNADQRPHDSHSFQAKGIWKKPEEMPTACPGHSPRSQMALTGISPPLAQSPPEVPKQQLLSYELGQGHAQASPEIRFTPFANPTHKPLAKPKSSQETPAHSSGQPPRDAKLEAKTAKASPSGQNISYIHSSSESVTPRTEGRLQQKSGSSVQKGVNSQKGKCVRNGDRFQVLIGYNAELIAVFKTLPSKNYDPDTKTWNFSMNDYSALMKAAQSLPTVNLQPLEWAYGSSESPSTSSEGQAGLPSAPSLSFVKGRCMLISRAYFEADISYSQDLIALFKQMDSRRYDVKTRKWSFLLEEHSKLIAKVRCLPQVQLDPLPTTLTLAFASQLKKTSLSLTPDVPEADLSEVDPKLVSNLMPFQRAGVNFAIAKGGRLLLADDMGLGKTIQAICIAAFYRKEWPLLVVVPSSVRFTWEQAFLRWLPSLSPDCINVVVTGKDRLTAGLINIVSFDLLSKLEKQLKTPFKVVIIDESHFLKNSRTARCRAAMPVLKVAKRVILLSGTPAMSRPAELYTQIIAVKPTFFPQFHAFGLRYCDAKRMPWGWDYSGSSNLGELKLLLEEAVMLRRLKSDVLSQLPAKQRKIVVIAPGRINARTRAALDAAAKEMTTKDKTKQQQKDALILFFNRTAEAKIPSVIEYILDLLESGREKFLVFAHHKVVLDAITQELERKHVQHIRIDGSTSSAEREDLCQQFQLSERHAVAVLSITAANMGLTFSSADLVVFAELFWNPGVLIQAEDRVHRIGQTSSVGIHYLVAKGTADDYLWPLIQEKIKVLAEAGLSETNFSEMTESTDYLYKDPKQQKIYDLFQKSFEKEGSDMELLEAAESFDPGSASGTSGSSSQNMGDTLDESSLTASPQKKRRFEFFDNWDSFTSPL | binds | binds | binds | – | –
2 | MCM8IP (endogenous) (protein, UniProt Q8N3J3 1-647) MACSLQKLFAVEEEFEDEDFLSAVEDAENRFTGSLPVNAGRLRPVSSRPQETVQAQSSRLLLLHPTAPSEALGLPDLDLCLPASSTPSADSRPSCIGAAPLRPVSTSSSWIGNQRRVTVTEVLRETARPQSSALHPLLTFESQQQQVGGFEGPEQDEFDKVLASMELEEPGMELECGVSSEAIPILPAQQREGSVLAKKARVVDLSGSCQKGPVPAIHKAGIMSAQDESLDPVIQCRTPRPPLRPGAVGHLPVPTALTVPTQQLHWEVCPQRSPVQALQPLQAARGTIQSSPQNRFPCQPFQSPSSWLSGKAHLPRPRTPNSSCSTPSRTSSGLFPRIPLQPQAPVSSIGSPVGTPKGPQGALQTPIVTNHLVQLVTAASRTPQQPTHPSTRAKTRRFPGPAGILPHQQSGRSLEDIMVSAPQTPTHGALAKFQTEIVASSQASVEEDFGRGPWLTMKSTLGLDERDPSCFLCTYSIVMVLRKQAALKQLPRNKVPNMAVMIKSLTRSTMDASVVFKDPTGEMQGTVHRLLLETCQNELKPGSVLLLKQIGVFSPSLRNHYLNVTPNNLVHIYSPDSGDGSFLKPSQPFPKDSGSFQHDVAAKPEEGFRTAQNLEAEASPEEELPEADDLDGLLSELPEDFFCGTSS | – | – | – | binds | binds

Results are given in words; binding and its absence hold for the method and conditions named. In cells and extracts the contact can be indirect. A yes stands for co-enrichment or nearness to the bait. Other partners may have been found. For some assays here: Where a sequence is shown, tags or fusion partners need not be part of it.
